# Results from PubChem BioAssay AID1671190 (National Center for Advancing Translational Sciences (NCATS), 2021).
# Protein sequences, listed by entry. Tags and fused reporters are not part of them. Lines headed by an entry give the natural chain unless they say otherwise; changes in a name come on top.
# UniProt P18054: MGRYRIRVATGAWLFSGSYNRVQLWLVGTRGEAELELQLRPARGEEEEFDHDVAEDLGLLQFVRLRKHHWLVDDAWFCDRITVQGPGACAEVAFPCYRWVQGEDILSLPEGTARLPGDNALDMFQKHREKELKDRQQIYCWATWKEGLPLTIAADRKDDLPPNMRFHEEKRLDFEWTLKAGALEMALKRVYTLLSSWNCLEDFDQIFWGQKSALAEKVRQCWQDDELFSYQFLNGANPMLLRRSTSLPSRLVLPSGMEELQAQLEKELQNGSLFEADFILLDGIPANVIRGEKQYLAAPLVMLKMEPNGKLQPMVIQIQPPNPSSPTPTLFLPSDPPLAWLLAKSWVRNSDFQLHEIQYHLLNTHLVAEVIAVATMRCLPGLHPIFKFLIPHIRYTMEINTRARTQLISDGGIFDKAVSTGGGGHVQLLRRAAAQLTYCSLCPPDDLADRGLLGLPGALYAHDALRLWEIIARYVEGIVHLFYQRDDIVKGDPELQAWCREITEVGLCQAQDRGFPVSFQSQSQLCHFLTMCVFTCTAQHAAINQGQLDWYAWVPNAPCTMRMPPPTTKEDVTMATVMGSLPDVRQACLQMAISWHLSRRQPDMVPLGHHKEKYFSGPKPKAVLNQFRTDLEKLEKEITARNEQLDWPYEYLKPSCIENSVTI
# The whole screen tested about 580,000 compounds, of which about 6,100 (1.1%) were called active. This list was built around the results that the source calls inconclusive (neither active nor inactive); the mix of calls is not that of the screen. Calls come from the whole dose curve; as a rule, active = well fitted inhibition curve with a large enough effect; inconclusive = small, poorly fitted or top-dose-only effect, or another doubt; inactive = no such curve, though single readings can be large or run the other way. A potency beside an inconclusive call is a rough fit, not a confirmed value.
# Biological target: Polyunsaturated fatty acid lipoxygenase ALOX12 (Homo sapiens) (UniProt P18054)
# Assay: Primary qHTS assay for inhibitors of human arachidonate 12S-lipoxygenase (ALOX12): Round 2
# Details: purified 12hLO, xylenol orange hydroperoxide absorbance; activity change, negative = inhibition: at 108 µM (top of the series) unless noted
# In short: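 Hydroperoxide product was detected by ferrous iron/xylenol orange as the 573 to 405 nm absorbance ratio. Arachidonic acid at 40 uM (final) was turned over for 30 min at room temperature by 150 nM human 12hLO, pH 7.0 Hepes buffer, after 15 min compound preincubation.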
# % is set by controls: 0 for no effect and ±100 for the full control effect; potency is the fitted concentration of half-maximal effect.
SMILES,Potency,"activity change, negative = inhibition"
CNc1ccc(Br)cc(C(=O)/C=C/c2cccc(OC)c2OC)c1=O,"inconclusive: 6.31 µM [inhibitor, full curve]",
O=C(O)c1ccc(Cl)cc1Nc1nc2cc(Cl)ccc2o1,active: 8.91 µM,
CCN(CC)S(=O)(=O)c1ccc(OCC(=O)NCc2ccco2)cc1,,inactive: -7.69%
Cc1ccc(S(=O)(=O)N2[C@@H](c3ccc(Cl)cc3)C(C(=O)O)=CC[C@H]2c2ccc(Cl)cc2)cc1,"inconclusive: 44.7 µM [inhibitor, partial curve, poor fit]",
O=C(COC(=O)c1ccc(S(=O)(=O)N2CCCC2)cc1)Nc1ccccc1,"inconclusive: 100 µM [inhibitor, single point]",
CSC(=Nc1cccc([N+](=O)[O-])c1)SC,"inconclusive: 44.7 µM [inhibitor, partial curve, poor fit]",
c1ccc(OCc2cc(CC3(NCc4ccco4)COC3)no2)cc1,,inactive: 24.4% [at 176 µM]
Cc1ccc(NNC(=O)c2cc(C)on2)c(C)c1,"inconclusive: 31.6 µM [inhibitor, single point]",
O=C(Nc1ccc2snnc2c1)N1CCN(c2ccccc2)CC1,"inconclusive: 141 µM [inhibitor, partial curve, poor fit]",
CN1CCN(c2ncc3nc(CCc4ccccc4)c(=O)n(Cc4cccs4)c3n2)CC1,"inconclusive: 44.7 µM [inhibitor, single point]",
CCN(CC)S(=O)(=O)c1cc(C(=O)Nc2cc(C)on2)c(Cl)cc1Cl,"inconclusive: 50.1 µM [inhibitor, single point]",
CCc1nnc(NS(=O)(=O)c2ccc(N=Cc3c(C)[nH]n(-c4ccc(C)c(C)c4)c3=O)cc2)s1,,inactive: -11.4%
O=C1CC(c2ccccc2)N(C(=O)C2CC2)CCCN(C(=O)NCc2ccc(F)cc2)CCN1 (centres undefined),,inactive: 21.3%
CCOc1ccc(-c2nc(NC(=O)c3cc(OC)cc(OC)c3)sc2C)cc1,"inconclusive: 0.631 µM [inhibitor, full curve]",
CCCc1nc2sc3c(NCCN)ncnc3c2c2c1CCC2,,inactive: -4.43%
CS(=O)(=O)N1CCC(Nc2nc3ccccc3o2)CC1,"inconclusive: 22.4 µM [inhibitor, partial curve, poor fit]",
Cc1cccc(OCc2nnc(SCC(=O)NC3CCCC3)n2C)c1,"inconclusive: 89.1 µM [inhibitor, partial curve, poor fit]",
CCn1cc(C(=O)N[C@@H](CCSC)C(=O)NC(C)(C)CO)c(=O)c2cc3c(cc21)OCO3,"inconclusive: 50.1 µM [inhibitor, partial curve, poor fit]",
CCCc1nc2cc(C)c(Br)c(C)n2c1Cc1ccc(OC)cc1C,"inconclusive: 35.5 µM [inhibitor, partial curve, poor fit]",
CC1CC1CNC(=O)c1nccnc1N (centres undefined),,inactive: -16.4%
COc1ccc(C(N)c2csc(Nc3cc(Oc4ccccc4)ncn3)n2)cc1 (centres undefined),"inconclusive: 44.7 µM [inhibitor, partial curve, poor fit]",
C=C1CC2COC(=O)C2(Cc2ccc3ccccc3c2)C1 (centres undefined),"inconclusive: 126 µM [inhibitor, single point]",

# Three consecutive records out of the list so far, quoted:
SMILES,Potency,"activity change, negative = inhibition"
O=C(Nc1ccc2snnc2c1)N1CCN(c2ccccc2)CC1,"inconclusive: 141 µM [inhibitor, partial curve, poor fit]",
CN1CCN(c2ncc3nc(CCc4ccccc4)c(=O)n(Cc4cccs4)c3n2)CC1,"inconclusive: 44.7 µM [inhibitor, single point]",
CCN(CC)S(=O)(=O)c1cc(C(=O)Nc2cc(C)on2)c(Cl)cc1Cl,"inconclusive: 50.1 µM [inhibitor, single point]",

# The list continues.

SMILES,Potency,"activity change, negative = inhibition"
COc1ccc(NC(=O)CCc2nnc3n(Cc4ccc(C)cc4)c(=O)c4ccccc4n23)cc1,"inconclusive: 100 µM [inhibitor, partial curve, poor fit]",
CC(=O)C1=C(O)C(=O)N(c2ccc(Br)cc2)C1c1ccc(Br)cc1 (centres undefined),active: 7.94 µM,
Cc1cc(C)n(CC(=O)n2nc(C)cc2C)n1,,inactive: 41.1% [at 57.4 µM]
COc1ccc(-c2coc(CCC(=O)N3CCN(c4cc(C)ccc4C)CC3)n2)cc1,active: 20 µM,
CC(=O)c1ccc(-n2c(-c3cc(-c4ccco4)[nH]n3)n[nH]c2=S)cc1,"inconclusive: 50.1 µM [inhibitor, single point]",
COc1cc(C2NC(=O)C(C#N)=C(Nc3cccc(C)c3)S2)ccc1O (centres undefined),"inconclusive: 39.8 µM [inhibitor, partial curve, poor fit]",
COc1ccc(-c2ccc3ncc(Nc4ccccc4C)n3n2)cn1,,inactive: 6.03% [at 176 µM]
Cc1cccc(N2CCN(C(=O)c3ccccc3NC(=O)C3CCCCC3C(=O)O)CC2)c1 (centres undefined),,inactive: -15%
CCCc1noc(-c2cccn3c(CNC(=O)c4cccnc4)nnc23)n1,,inactive: 58.4%
CC[C@@H](C)CN1C(=O)N[C@@H](c2ccccc2)C(C(C)=O)=C1C,"inconclusive: 35.5 µM [inhibitor, partial curve, poor fit]",
O=c1c2ccccc2sn1-c1ccc(Cl)cc1,active: 0.251 µM,
CC(C)(C)CC(=O)C(C#N)C(=O)NCc1ccccc1 (centres undefined),"inconclusive: 6.31 µM [inhibitor, full curve, poor fit]",
Cc1cc(SCC(=O)Nc2ccc(F)cc2F)nc2ccccc12,,inactive: 2.28%
COc1cccc(Oc2cc(NN3CCCCC3)c([N+](=O)[O-])cc2[N+](=O)[O-])c1OC,"inconclusive: 70.8 µM [inhibitor, single point]",
Cc1nnc(NC(=O)CSc2nc3c(c(=O)n2C)SC(C)C3)s1 (centres undefined),"inconclusive: 112 µM [inhibitor, single point]",
NC(=O)c1c(NC(=O)Cn2nc(C(=O)O)c3ccccc3c2=O)sc2c1CCCC2,,inactive: -9.38%
S=C(NCCC(c1ccccc1)c1ccccc1)Nc1ccc(Cl)c(Cl)c1,"inconclusive: 50.1 µM [inhibitor, partial curve, poor fit]",
COc1ccc(/C=N/N(Cc2ccccc2)c2ccccc2)cc1O,"inconclusive: 50.1 µM [inhibitor, partial curve, poor fit]",
Cc1nn(-c2cccc(C(F)(F)F)c2)c(Cl)c1/C=N/Nc1cccc(C(=O)O)c1,"inconclusive: 44.7 µM [inhibitor, partial curve, poor fit]",
CC(=O)c1ccc(Nc2c3c(nc4ccccc24)CCCC3)cc1,,inactive: 2.11%
Oc1ccc(-c2nc(-c3ccccc3F)cs2)cc1,"inconclusive: 63.1 µM [inhibitor, partial curve, poor fit]",
CCCn1c(=O)n(CC(=O)NCc2nnc3n2CCCCC3)c2ccccc21,,inactive: 34.5%
